Experimental data as given in publication PMC2734569, “Functional mapping of the fission yeast DNA polymerase δ B-subunit Cdc1 by site-directed and random pentapeptide insertion mutagenesis” (BMC Molecular Biology, 2009).
No constants are given. Whether binding was seen depends on the method and setting. Tags and fused reporters may be left off the sequences shown.

Key:
Test in all cases: two-hybrid; LexA-Cdc1 bait (pBTM116 or pBTM116BN) with Gal4 activation domain-Cdc27 prey (pGAD2F-Cdc27) in S. cerevisiae CTY10-5d; ONPG liquid culture beta-galactosidase assay, mean of triplicates, as percent of wild-type Cdc1
[1] = molecular target: T1, Cdc1-J6 (Schizosaccharomyces pombe, UniProt P87324 1-462, Tyr-GlyValProHisTyr-Gly)
T1 construct: Cdc1, S. pombe, with a pentapeptide inserted after residue 124; source: yeast two-hybrid fusion, in S. cerevisiae CTY10-5d
T1 sequence (looked up): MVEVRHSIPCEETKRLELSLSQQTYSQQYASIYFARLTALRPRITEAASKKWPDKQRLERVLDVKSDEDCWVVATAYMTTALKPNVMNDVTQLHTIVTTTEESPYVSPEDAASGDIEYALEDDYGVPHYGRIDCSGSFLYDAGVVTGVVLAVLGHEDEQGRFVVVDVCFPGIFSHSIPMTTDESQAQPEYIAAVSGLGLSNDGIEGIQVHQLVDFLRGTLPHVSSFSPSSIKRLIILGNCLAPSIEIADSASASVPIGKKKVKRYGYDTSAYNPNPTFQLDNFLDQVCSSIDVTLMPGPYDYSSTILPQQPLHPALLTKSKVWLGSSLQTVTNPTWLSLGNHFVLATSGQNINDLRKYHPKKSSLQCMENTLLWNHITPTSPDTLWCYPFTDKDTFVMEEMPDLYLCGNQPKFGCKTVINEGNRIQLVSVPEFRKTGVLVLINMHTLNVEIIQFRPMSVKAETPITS

[2] = molecular target: T2, Cdc1-J21 (Schizosaccharomyces pombe, UniProt P87324 1-462, Leu-GlyValProGlnLeu-Asp)
T2 construct: Cdc1, S. pombe, with a pentapeptide inserted after residue 275; source: yeast two-hybrid fusion, in S. cerevisiae CTY10-5d
T2 sequence (looked up): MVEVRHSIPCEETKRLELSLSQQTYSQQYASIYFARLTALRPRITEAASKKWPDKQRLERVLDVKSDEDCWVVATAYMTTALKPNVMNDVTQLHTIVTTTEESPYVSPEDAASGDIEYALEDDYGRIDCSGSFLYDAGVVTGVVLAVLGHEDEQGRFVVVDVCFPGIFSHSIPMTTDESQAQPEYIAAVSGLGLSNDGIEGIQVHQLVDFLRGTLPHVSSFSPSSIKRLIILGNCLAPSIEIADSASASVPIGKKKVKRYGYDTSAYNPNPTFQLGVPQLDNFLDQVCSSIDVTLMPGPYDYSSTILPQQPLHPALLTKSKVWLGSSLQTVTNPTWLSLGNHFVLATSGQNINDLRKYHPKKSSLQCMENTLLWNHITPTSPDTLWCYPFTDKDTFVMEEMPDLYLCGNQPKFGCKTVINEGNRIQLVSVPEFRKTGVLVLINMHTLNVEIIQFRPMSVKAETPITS

[3] = molecular target: T3, Cdc1-J1 (Schizosaccharomyces pombe, UniProt P87324 1-462, Thr-GlyValProLeuThr-Gly)
T3 construct: Cdc1, S. pombe, with a pentapeptide inserted after residue 141; source: yeast two-hybrid fusion, in S. cerevisiae CTY10-5d
T3 sequence (looked up): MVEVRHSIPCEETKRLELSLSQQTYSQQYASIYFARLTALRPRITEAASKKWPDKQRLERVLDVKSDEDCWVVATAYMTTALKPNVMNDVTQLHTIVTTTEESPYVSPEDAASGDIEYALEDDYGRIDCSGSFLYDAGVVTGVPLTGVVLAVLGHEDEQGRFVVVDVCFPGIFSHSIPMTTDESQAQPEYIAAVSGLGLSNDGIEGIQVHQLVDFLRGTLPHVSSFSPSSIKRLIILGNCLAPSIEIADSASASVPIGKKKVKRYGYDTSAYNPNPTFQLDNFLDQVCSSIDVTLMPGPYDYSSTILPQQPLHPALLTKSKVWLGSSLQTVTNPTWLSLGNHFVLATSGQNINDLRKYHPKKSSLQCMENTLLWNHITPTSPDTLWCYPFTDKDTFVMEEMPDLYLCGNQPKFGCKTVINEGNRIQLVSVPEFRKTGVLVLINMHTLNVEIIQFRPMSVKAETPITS

[4] = molecular target: T4, Cdc1-A7 (Schizosaccharomyces pombe, UniProt P87324 1-462, Gly344Ala)
T4 construct: Cdc1, S. pombe, point mutant; source: yeast two-hybrid fusion, in S. cerevisiae CTY10-5d
T4 sequence (looked up): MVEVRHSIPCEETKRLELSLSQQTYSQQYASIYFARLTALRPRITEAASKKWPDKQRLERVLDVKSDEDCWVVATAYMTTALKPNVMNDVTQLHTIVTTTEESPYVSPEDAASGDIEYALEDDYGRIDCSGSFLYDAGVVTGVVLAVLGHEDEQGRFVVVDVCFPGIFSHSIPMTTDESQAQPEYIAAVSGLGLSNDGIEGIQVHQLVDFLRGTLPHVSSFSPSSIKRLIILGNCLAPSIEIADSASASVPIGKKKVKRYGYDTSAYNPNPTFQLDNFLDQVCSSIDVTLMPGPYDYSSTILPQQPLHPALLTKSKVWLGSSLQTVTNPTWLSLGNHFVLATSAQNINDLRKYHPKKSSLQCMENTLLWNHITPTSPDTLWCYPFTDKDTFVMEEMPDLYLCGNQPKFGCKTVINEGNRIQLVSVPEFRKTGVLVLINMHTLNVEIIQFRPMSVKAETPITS

B1: Cdc27 (fission yeast DNA polymerase delta C-subunit) (natural protein, Schizosaccharomyces pombe, UniProt P30261 1-372, looked up)
chain: MEEWRNFLDIKVINESSLVTVDNLSLQLDISSEKAQEYLNMFYQGNDFLYPIYLIHGQPIDDEINLEIDEESQPISNFPVLQYILCDKSSLQEKQSRLKSGYKTVIFALSSAPLSDFDELLPAVYEIREKDVLYKKEDADKYGFIFNENSVPRVLKKAPSTHSPQLSVPSKTSTIDKTDTRSTEKTKGKDIFSNARNQKGNSSRKNKKAPLENHKEKEPLLPKEEKLSEQAKRERDDLKNIMQLEDESVSTTSVHDSEDDNLDSNNFQLEIGTEAKSAAPDEPQEIIKSVSGGKRRGKRKVKKYATTKDEEGFLVTKEEEVWESFSEDENISTGTSNVVRNKPTTVNIATKKKNTAQSKPQQKSIMSFFGKK
notes: DNA polymerase delta C-subunit Cdc27, S. pombe; prey plasmid pGAD2F-Cdc27; also called pGAD2F-Cdc27; source: yeast two-hybrid fusion, in S. cerevisiae CTY10-5d
In the case of B1, the binding [1] is reported as “no binding (tested: <1% of wild type (Table 1))”, the binding [2] is reported as “no binding (tested: <1% of wild type (Table 1))” and the binding [3] is reported as “no binding (tested: <1% of wild type (Table 1))”. For the same binder, the binding [4] was “no binding (tested: <1% of wild type)”.
